# PubChem BioAssay AID1259291, Sanger Institute, 2017
# Test: 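Find kinase and colorectal-cancer-mutated genes whose loss kills HT29 cells or aids anchor drugs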 (primary screen)
# Cell system: HT29 human colorectal cancer cells
# Knock-down reagent: siRNA pool against human genes
# Challenge: anchor drugs added a day after transfection: BYL719 at 1 µM, cetuximab at 5 µg/ml or trametinib at 10 nM, or DMSO vehicle alone
# Detection: 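Cell viability as a fraction of the non-targeting pool, mean of replicates, robust z-scores from control wells; synergy scores for BYL719 (1 µM), cetuximab (5 µg/ml), trametinib (10 nM)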
# Reading the numbers: robust z-score, knock-down alone and viability, knock-down alone: higher = more viable cells; synergy score with BYL719 and synergy score with cetuximab and synergy score with trametinib: higher = stronger synergistic killing with drug
# Rule for the call: 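Essential when the robust z-score for knock-down without any drug is below -3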
# Meaning of the calls: active = essential (knock-down alone); inactive = no change alone
# Shown is one part, drawn at random, of 794 reagents. 15 of them (1.9%) were called active. 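Calls rest on knock-down alone; drug synergy scores do not affect them; drugs added a day post-transfection, DMSO vehicle as comparison.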 No viability above 1 is reported: the scale is capped. No sequences are given here. Not stated in the record: the amount of reagent, the time to read-out.
gene,"robust z-score, knock-down alone","viability, knock-down alone (fraction of control)",synergy score with BYL719,synergy score with cetuximab,synergy score with trametinib,Call
PIK3CD,0.552,1,-0.142,0.00952,-0.0471,inactive
BMPR1A (bone morphogenetic protein receptor type 1A),-1.03,0.902,-0.149,-0.0983,-0.0667,inactive
EEF2K (eukaryotic elongation factor 2 kinase),-1.58,0.868,0.104,-0.0889,-0.176,inactive
MAPK1 (mitogen-activated protein kinase 1),0.552,1,0.19,0.0642,0.0746,inactive
STKLD1 (serine/threonine kinase like domain containing 1),-1.44,0.876,-0.0849,-0.124,-0.0348,inactive
PRKCA (protein kinase C alpha),0.552,1,0.0716,0.0295,0.0895,inactive
DLG1 (discs large MAGUK scaffold protein 1),0.552,1,-0.0177,0.0645,-0.0649,inactive
PAK4 (p21 (RAC1) activated kinase 4),0.552,1,-0.024,0,-0.0438,inactive
MAP4K4 (mitogen-activated protein kinase kinase kinase kinase 4),-1.06,0.9,-0.0405,-0.1,-0.0638,inactive
FGFR3 (fibroblast growth factor receptor 3),-2.08,0.837,-0.0388,-0.163,-0.0213,inactive
ACVR1 (activin A receptor type 1),0.552,1,0.021,0.0388,0.107,inactive
RTN4 (reticulon 4),0.552,1,0.0829,0,-0.0804,inactive
MARK4 (microtubule affinity regulating kinase 4),0.104,0.972,0.0543,0.0195,0.0207,inactive
TAB1 (TGF-beta activated kinase 1 (MAP3K7) binding protein 1),-1.94,0.846,-0.178,-0.155,-0.0299,inactive
JAK1 (Janus kinase 1),0.552,1,-0.158,0.0802,-0.0329,inactive
EPHB1 (EPH receptor B1),0.552,1,0.024,0.0292,-0.041,inactive
PRKAB1 (protein kinase AMP-activated non-catalytic subunit beta 1),-1.84,0.852,-0.0853,-0.0431,0.0117,inactive
UCK1 (uridine-cytidine kinase 1),0.552,1,-0.0718,0,0.0278,inactive
NRBP2 (nuclear receptor binding protein 2),-1.65,0.864,0.0404,0.0963,0.0536,inactive
ERBB2 (erb-b2 receptor tyrosine kinase 2),-0.118,0.958,-0.0304,-0.019,0.0371,inactive
DGKA (diacylglycerol kinase alpha),0.337,0.987,-0.029,-0.0134,-0.000407,inactive
WNK1 (WNK lysine deficient protein kinase 1),0.552,1,-0.158,0,0.0546,inactive
PRKX (protein kinase cAMP-dependent X-linked catalytic subunit),0.552,1,-0.0974,0,0.00991,inactive
PDPK1 (3-phosphoinositide dependent protein kinase 1),0.552,1,0.249,0.106,0.0787,inactive
CDKL5 (cyclin dependent kinase like 5),0.552,1,0.0538,0,0.077,inactive
ERBB4 (erb-b2 receptor tyrosine kinase 4),0.552,1,0.0687,0,0.108,inactive
PIK3R2 (phosphoinositide-3-kinase regulatory subunit 2),-0.75,0.919,-0.0836,-0.0808,-0.0895,inactive
PCK1 (phosphoenolpyruvate carboxykinase 1),0.135,0.974,0.144,0.0994,0.0344,inactive
EFNA4 (ephrin A4),0.387,0.99,-0.166,-0.0103,0.0631,inactive
MAP2K2 (mitogen-activated protein kinase kinase 2),0.552,1,-0.000953,0.0352,-0.0347,inactive
GUCY2C (guanylate cyclase 2C),0.552,1,-0.135,0,-0.0683,inactive
TCF12 (transcription factor 12),0.552,1,-0.0977,0,-0.00875,inactive
DTYMK (deoxythymidylate kinase),0.174,0.977,-0.0526,0.052,0.0209,inactive
PIP5KL1 (phosphatidylinositol-4-phosphate 5-kinase like 1),0.552,1,0.0839,0.0678,0.0276,inactive
STK38L (serine/threonine kinase 38 like),0.552,1,-0.0609,0.15,0.0143,inactive
SPHK2 (sphingosine kinase 2),0.552,1,0.00289,0,-0.156,inactive
FLT4 (fms related receptor tyrosine kinase 4),0.552,1,0.0197,0,0.0186,inactive
PRPS1 (phosphoribosyl pyrophosphate synthetase 1),-0.331,0.945,0.0672,0.0736,-0.0453,inactive
MAP3K10 (mitogen-activated protein kinase kinase kinase 10),0.552,1,-0.14,0.0572,-0.0656,inactive
MAP2K4 (mitogen-activated protein kinase kinase 4),0.552,1,0.0247,0.0414,-0.0112,inactive
FBXW7 (F-box and WD repeat domain containing 7),-0.979,0.905,-0.0541,0.0464,0.0709,inactive
MED12 (mediator complex subunit 12),-1.18,0.893,-0.0281,0.121,0.00849,inactive
DCLK3 (doublecortin like kinase 3),0.552,1,-0.00179,0,-0.1,inactive
RSKR (ribosomal protein S6 kinase related),0.156,0.975,-0.0928,-0.0247,-0.0755,inactive
MAP2K6 (mitogen-activated protein kinase kinase 6),-2.78,0.794,-0.285,-0.187,-0.257,inactive
ATP23,-0.405,0.941,-0.0181,-0.0308,0.0744,inactive
AK4 (adenylate kinase 4),0.552,1,-0.0425,0.0661,0.0892,inactive
MAP3K3 (mitogen-activated protein kinase kinase kinase 3),0.552,1,-0.142,0,0.0857,inactive
TLK1 (tousled like kinase 1),0.231,0.98,0.207,0.0711,0.178,inactive
"PIM3 (Pim-3 proto-oncogene, serine/threonine kinase)",-0.83,0.914,-0.154,-0.0774,0.023,inactive

Part of the list above, showing only “synergy score with cetuximab”.
PDPK1 (3-phosphoinositide dependent protein kinase 1) = 0.106
CDKL5 (cyclin dependent kinase like 5) = 0
ERBB4 (erb-b2 receptor tyrosine kinase 4) = 0
PIK3R2 (phosphoinositide-3-kinase regulatory subunit 2) = -0.0808
